The record followed here is patent US10220022B2, “Compositions and methods employing Wolbachia FtsZ as a target for Albendazole sulfone” (The Regents of the University of California, priority 2011, dated 2019).

The test has as its system Wolbachia-infected JW18 cells. The experiment in a line: High-throughput screen for compounds reducing Wolbachia infection of JW18 cells. In kind it is cell-based, Drosophila. The note with it: 100 uM per well, 5-day incubation at 25 C, 3 replicates. As for the experimental part: Cells were plated in 384-well, clear bottom plates (Griener Bio-one) pre-coated with 0.5 mg/mL Concanavalin A. JW18 cells were added to 22 columns, and JW18TET cells were added to the remaining 2 columns at a dilution of 6500 cells per well. After the cells adhered to the plates, compounds were transferred into 20 columns of JW18 cells in the center of the plate using a Janus MDT pin tool. The final concentration of compound was 100 uM per well. All treatments were distributed into 3 plate replicates.
After a 5-day incubation with the compounds at 25 C, the cells were prepared for imaging. […]
Stained treatment plates were imaged using the MetaExpress Micro system (Molecular Devices, Sunnyvale Calif.). […] These images were next analyzed using customized journaling software provided by Molecular Devices. The journal first masks any areas where clumps of cells are detected, based upon intensity of the Jupiter-GFP. […] A threshold for DAPI fluorescence detection is set to detect as much Wolbachia as possible in JW18 control cells while minimizing detection of background DAPI signal in JW18TET control cells. Then this cytoplasmic DAPI level, read to indicate Wolbachia, is scored in the cytoplasm of individual cells to determine whether each cell is infected with Wolbachia. The cutoff value distinguishing “infected” from “uninfected” cells is 4000-5000 fluorescence units per cell. […]

On to `CCN(CC)c1ccc2cc3ccc(=[N+](CC)CC)cc-3oc2c1.[Cl-]` [Pyronin B], for which the “reduction of Wolbachia-infection frequency (screen hit)” value is listed as “hits”.
